These are yes or no findings as the source states them, for the method shown. Binding seen in cells or lysates may run through a third protein. Some results given as binding are weak or reduced against the parent protein; the word gives no strength.
Target: endogenous HCK (RAW264.7 macrophage cells) (mouse (endogenous in RAW264.7)) (UniProt P08103)
Assay: co-IP; endogenous proteins in RAW264.7 macrophage cells, IP combined with immunoblotting

Sequences of proteins named here, by UniProt entry; tags and fusion partners are left off.
UniProt P08103: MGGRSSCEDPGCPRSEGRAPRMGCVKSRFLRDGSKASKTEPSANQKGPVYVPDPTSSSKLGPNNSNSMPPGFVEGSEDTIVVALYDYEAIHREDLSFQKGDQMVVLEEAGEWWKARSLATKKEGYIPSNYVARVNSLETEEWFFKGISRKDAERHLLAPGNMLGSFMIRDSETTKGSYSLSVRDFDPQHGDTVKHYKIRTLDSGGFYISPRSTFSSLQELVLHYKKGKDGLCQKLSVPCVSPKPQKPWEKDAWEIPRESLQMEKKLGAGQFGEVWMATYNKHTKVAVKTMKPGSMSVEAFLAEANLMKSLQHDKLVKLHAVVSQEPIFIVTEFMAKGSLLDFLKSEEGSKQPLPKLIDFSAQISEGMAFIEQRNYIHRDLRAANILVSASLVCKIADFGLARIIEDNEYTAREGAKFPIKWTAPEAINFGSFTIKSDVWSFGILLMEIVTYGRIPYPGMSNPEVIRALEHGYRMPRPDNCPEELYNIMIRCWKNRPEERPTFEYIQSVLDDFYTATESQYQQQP
UniProt Q6P4T0: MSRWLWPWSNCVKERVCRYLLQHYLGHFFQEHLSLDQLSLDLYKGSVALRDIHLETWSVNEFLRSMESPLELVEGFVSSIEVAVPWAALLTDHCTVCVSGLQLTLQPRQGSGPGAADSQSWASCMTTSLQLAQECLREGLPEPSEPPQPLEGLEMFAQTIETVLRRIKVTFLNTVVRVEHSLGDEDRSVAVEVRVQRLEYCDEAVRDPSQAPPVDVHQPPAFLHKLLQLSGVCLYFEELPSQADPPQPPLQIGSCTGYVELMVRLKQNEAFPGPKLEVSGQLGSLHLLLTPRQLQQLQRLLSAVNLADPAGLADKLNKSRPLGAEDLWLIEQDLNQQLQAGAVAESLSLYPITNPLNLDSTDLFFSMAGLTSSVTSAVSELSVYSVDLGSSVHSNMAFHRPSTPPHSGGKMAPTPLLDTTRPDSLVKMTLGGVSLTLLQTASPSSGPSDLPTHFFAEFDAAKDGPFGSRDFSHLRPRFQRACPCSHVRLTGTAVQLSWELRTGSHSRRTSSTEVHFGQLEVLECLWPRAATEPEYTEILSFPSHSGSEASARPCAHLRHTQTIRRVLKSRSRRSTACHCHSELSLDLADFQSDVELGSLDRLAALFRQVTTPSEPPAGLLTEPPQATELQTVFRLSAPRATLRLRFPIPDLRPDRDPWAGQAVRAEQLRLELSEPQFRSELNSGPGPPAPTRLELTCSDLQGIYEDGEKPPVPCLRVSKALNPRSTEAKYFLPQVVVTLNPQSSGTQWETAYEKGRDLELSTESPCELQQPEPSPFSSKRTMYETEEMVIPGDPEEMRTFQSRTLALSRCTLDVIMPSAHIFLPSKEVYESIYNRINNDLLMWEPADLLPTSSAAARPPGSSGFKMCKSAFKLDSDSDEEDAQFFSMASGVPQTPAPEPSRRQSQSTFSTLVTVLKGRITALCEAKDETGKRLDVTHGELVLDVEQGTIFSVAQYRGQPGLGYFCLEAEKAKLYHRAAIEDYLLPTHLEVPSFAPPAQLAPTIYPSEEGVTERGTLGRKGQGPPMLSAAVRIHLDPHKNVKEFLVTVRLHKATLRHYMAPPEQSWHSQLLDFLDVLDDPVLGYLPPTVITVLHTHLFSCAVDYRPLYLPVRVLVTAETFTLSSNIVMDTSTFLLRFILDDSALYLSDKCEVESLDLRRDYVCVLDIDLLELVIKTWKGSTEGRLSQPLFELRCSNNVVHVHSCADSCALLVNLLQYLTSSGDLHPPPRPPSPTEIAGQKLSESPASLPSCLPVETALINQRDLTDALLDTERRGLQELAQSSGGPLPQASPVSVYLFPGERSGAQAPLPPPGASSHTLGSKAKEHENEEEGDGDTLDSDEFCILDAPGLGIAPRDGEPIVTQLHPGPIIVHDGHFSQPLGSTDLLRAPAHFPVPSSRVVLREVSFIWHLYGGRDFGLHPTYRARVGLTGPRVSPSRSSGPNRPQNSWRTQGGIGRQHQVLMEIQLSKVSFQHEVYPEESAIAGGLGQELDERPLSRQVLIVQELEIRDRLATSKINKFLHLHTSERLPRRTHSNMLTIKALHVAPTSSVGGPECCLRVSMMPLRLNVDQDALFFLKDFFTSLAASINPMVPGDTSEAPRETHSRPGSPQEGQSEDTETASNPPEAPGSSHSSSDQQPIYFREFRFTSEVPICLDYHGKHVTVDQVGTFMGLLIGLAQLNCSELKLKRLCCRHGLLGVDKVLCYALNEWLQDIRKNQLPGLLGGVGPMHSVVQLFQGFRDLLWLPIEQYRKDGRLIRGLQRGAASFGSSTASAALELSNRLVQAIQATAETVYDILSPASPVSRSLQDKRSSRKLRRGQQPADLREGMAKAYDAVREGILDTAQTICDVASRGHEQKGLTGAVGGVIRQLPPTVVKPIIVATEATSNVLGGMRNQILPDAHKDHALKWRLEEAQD

Row | Substance | binding
1 | ATG2A (endogenous, RAW264.7 macrophage cells) (from UniProt Q6P4T0 1-1914) | binds
2 | CBL (endogenous, RAW264.7 macrophage cells) (from UniProt P22682 1-913) | binds

Source: article PMC10354075
